Experimental data published in paper PMC4811774.
Results are given in words; binding and its absence hold for the method and conditions named. For some of these results: In cells and extracts the contact can be indirect. Some entries that bind do so weakly or less than the wild type. One block for each molecule: values may come before it.

The chains behind the UniProt entries cited, without tags or fusion partners.
UniProt O81283: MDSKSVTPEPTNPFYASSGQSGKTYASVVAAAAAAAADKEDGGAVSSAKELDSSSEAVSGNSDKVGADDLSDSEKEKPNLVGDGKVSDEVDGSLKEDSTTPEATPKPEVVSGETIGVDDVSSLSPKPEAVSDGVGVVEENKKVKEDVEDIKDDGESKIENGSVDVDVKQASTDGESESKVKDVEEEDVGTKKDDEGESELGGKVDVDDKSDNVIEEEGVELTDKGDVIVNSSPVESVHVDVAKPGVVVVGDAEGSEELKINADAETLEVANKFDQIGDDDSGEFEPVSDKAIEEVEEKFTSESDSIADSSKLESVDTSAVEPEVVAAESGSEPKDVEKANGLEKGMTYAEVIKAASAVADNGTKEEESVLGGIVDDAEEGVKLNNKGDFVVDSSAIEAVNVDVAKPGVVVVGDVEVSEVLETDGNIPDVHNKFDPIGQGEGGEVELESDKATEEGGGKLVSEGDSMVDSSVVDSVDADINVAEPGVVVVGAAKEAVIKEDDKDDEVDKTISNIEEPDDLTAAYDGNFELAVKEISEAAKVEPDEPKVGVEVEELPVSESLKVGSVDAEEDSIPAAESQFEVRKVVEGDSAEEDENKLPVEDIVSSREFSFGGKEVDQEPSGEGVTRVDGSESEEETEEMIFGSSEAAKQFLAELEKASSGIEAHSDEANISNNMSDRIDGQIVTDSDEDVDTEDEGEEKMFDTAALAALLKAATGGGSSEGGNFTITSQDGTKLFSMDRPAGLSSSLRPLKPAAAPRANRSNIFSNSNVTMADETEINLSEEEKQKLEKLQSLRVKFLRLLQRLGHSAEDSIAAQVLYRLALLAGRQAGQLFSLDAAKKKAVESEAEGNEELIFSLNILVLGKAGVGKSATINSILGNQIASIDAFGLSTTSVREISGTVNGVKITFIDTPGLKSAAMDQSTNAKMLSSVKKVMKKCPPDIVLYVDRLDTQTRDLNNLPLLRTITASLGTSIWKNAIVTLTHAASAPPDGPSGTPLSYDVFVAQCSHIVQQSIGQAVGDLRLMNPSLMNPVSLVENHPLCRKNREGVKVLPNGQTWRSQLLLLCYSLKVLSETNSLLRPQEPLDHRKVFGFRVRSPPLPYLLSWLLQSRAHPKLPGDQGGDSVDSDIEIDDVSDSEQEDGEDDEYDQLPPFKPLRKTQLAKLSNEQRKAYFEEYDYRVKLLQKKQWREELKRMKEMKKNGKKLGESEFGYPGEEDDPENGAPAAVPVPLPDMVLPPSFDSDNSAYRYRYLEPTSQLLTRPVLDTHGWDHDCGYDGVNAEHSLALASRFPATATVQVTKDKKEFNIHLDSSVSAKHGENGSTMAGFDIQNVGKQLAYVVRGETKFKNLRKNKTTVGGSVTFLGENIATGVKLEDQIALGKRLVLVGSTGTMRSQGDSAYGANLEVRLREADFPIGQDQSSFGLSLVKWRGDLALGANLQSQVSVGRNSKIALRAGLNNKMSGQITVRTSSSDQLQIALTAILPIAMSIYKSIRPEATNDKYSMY

Key:
[1] = target: T1, Toc33 (Arabidopsis thaliana (endogenous in chloroplasts)) (UniProt O23680); assay: native gel or EMSA; 2D blue-native PAGE: chloroplast membranes solubilised in 1% decylmaltoside, 4-12% BN-PAGE at 4°C, then 5-12% SDS-PAGE and immunoblotting; co-migration
T1 sequence: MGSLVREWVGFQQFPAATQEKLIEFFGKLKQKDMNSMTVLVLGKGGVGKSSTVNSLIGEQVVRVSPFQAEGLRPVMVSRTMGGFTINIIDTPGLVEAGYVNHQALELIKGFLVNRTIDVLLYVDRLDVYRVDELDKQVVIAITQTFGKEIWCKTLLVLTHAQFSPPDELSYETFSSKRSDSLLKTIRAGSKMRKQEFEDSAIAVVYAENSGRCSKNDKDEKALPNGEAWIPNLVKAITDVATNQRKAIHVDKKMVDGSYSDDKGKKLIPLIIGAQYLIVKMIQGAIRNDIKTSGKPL

[2] = target: T1, Toc33 (Arabidopsis thaliana (endogenous in chloroplasts)); assay: co-IP; immunoaffinity chromatography of detergent-soluble chloroplast membranes from TOC75, TOC75ΔP1#2 and TOC75ΔP1-2#2 plants on anti-atToc33 Sepharose under native conditions; eluates immunoblotted
[3] = target: Toc159 (Arabidopsis thaliana (endogenous in chloroplasts)) (UniProt O81283); assay: native gel or EMSA; 2D blue-native PAGE: chloroplast membranes solubilised in 1% decylmaltoside, 4-12% BN-PAGE at 4°C, then 5-12% SDS-PAGE and immunoblotting; co-migration

binding [1]: binds | binding [2]: binds
Molecule: Toc159 (from UniProt O81283 1-1503) (receptor)

binding [3]: binds | binding [1]: binds | binding [2]: binds
B1: Toc75 (full-length, native) (protein, UniProt Q9STE8 141-818)
chain: DEEQSPDWDSHGLPANIVVQLNKLSGFKKYKVSDIMFFDRRRQTTIGTEDSFFEMVSIRPGGVYTKAQLQKELETLATCGMFEKVDLEGKTKPDGTLGVTISFAESTWQSADRFRCINVGLMVQSKPIEMDSDMTDKEKLEYYRSLEKDYKRRIDRARPCLLPAPVYGEVMQMLRDQGKVSARLLQRIRDRVQKWYHDEGYACAQVVNFGNLNTKEVVCEVVEGDITQLVIQFQDKLGNVVEGNTQVPVVRRELPKQLRQGYVFNIEAGKKALSNINSLGLFSNIEVNPRPDEKNEGGIIVEIKLKELEQKSAEVSTEWSIVPGRGGAPTLASFQPGGSVTFEHRNLQGLNRSLMGSVTTSNFLNPQDDLSFKLEYVHPYLDGVYNPRNRTFKTSCFNSRKLSPVFTGGPGVEEVPPIWVDRAGVKANITENFTRQSKFTYGLVMEEITTRDESSHIAANGQRLLPSGGISADGPPTTLSGTGVDRMAFLQANITRDNTKFVNGAVVGQRTVFQVDQGLGIGSKFPFFNRHQLTMTKFIQLREVEQGAGKSPPPVLVLHGHYGGCVGDLPSYDAFVLGGPYSVRGYNMGELGAARNIAEVGAEIRIPVKNTHVYAFVEHGNDLGSSKDVKGNPTAVYRRTGQGSSYGAGVKLGLVRAEYAVDHNNGTGALFFRFGERY

binding [2]: no binding
B2: OEP80 (protein, UniProt Q9C5J8 1-732)
chain: MHCHNDDVRFSSSSIRIHSPSPKEQHSLLTNLQSCSKTFVSHLSNTRNSLNQMLQSLKNRHTPPPRSVRRPNLPTQMLNSVTQLMIGKSSPISLSLIQSTQFNWSESRDENVETIRGLSSPLLCCASLSLTRPNESTQSVEGKDTVQQQKGHSVSRNAEERVLISEVLVRTKDGEELERKDLEMEALAALKACRANSALTIREVQEDVHRIIESGYFCSCTPVAVDTRDGIRLMFQVEPNQEFRGLVCENANVLPSKFIHEAFRDGFGKVINIKRLEEAITSINGWYMERGLFGIVSDIDTLSGGIVRLQVAEAEVNNISIRFLDRKTGEPTKGKTSPETILRQLTTKKGQVYSMLQGKRDVDTVLAMGIMEDVSIIPQPAGDSGKVDLIMNCVERPSGGFSAGGGISSGITSGPLSGLIGSFAYSHRNLFGRNQKLNVSLERGQIDSIFRINYTDPWIEGDDKRTSRSIMVQNSRTPGNLVHGNQPDNSSLTIGRVTAGVEYSRPFRPKWNGTAGLIFQHAGARDEQGNPIIKDFYSSPLTASGKPHDETMLAKLESIYTGSGDQGSTMFAFNMEQGLPVLPEWLCFNRVTGRARKGIHIGPARFLFSLSGGHVVGKFSPHEAFVIGGTNSVRGYEEGAVGSGRSYVVGSGELSFPVRGPVEGVIFTDYGTDMGSGSTVPGDPAGARLKPGSGYGYGLGVRVDSPLGPLRLEYAFNDQHAGRFHFGVGLRN

binding [2]: binds
B3: Tic110 (protein, UniProt Q8LPR9 52-1016)
chain: SAASSDQLSVSTQAKNPGIHGNKKELTGLQPIVEKMTPPVRLATSAVVLAASLATGYGLGLRLAGSRNIAFGGAAVAGAAGGAVVYALNSAVPEVAAISLHNYVAEFEDPASVTKDDVEKIADRYGVNKGDEAFQAEICDIYCRYVTSVLPTEGQSLKGDEVAKIVKFKNALGIDEPDAAAMHMEIGRRIFRQRLETGEREGDAEQRRAFMRLVYVSALVFGDASSFLLPWKRVLKVTDAQVEIAIRENAKQLYAERLKLVGRDINVENLVDLRKSQLSFKLSDELAEDLFREHTRKVVVENISSALSILKSRTRAAKSLASVVEELEKVLEFNNLLVSLKSHSEADQFARGVGPISLIGDESDFERRMDDLKLLYRAYVTDALSGGRLEENKLVAMSQLRNILGLGKREAEAISVDVTSKSYRKRLANAVSSGDLEAQDSKAKYLQKLCEELHFDAQKAGAIHEEIYRQKLQQCVTDGELSDDNVAALLRLRVMLCIPQQTVDTAHAEICGTIFEKVVRDAISSGVDGYDAETRKSVRKAAHGLRLSRETAMSIASKAVRRVFTNYIRRARAAENRTDSAKELKKMIAFNTLVVTEMVADIKGESSDKAPEEDPVQEKEEDDEDEEWGSLESLRKTRPDKELAEKMGKPGQTEITLKDDLPDRDRIDLYKTYLLYCVTGEVTRIPFGAQITTKRDDSEYLLLNQLGGILGLSSKEIVNIHVGLAEQAFRQQAEVILADGQLTKARVEQLDELQKQVGLPQPQAEKVIKNITTTKMANAIETAVNQGRLNIKQIRELKEANVSLDSMIAVSLREKLFKKTVSDIFSSGTGEFDETEVYQTIPSDLSIDVEKAKRVVHDLAQSRLSNSLVQAVALLRQRNSKGVVLSLNDLLACDKAVPAEPMSWEVSEELSDLYAIYSKSDPKPAPEKVLRLQYLLGIDDSTATALREMEDGALSSAAEEGNFVF
